Measurements reported in PubChem BioAssay AID1224828 (NIAID, 2016).
In all, the deposit lists about 17,000 reagents; below is an unselected part. 762 of them (4.5%) were called active. 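Active calls include both raised and lowered p65 entry, mostly lowered; wells with fewer than 50 cells lack a z-score.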 Raw values are not corrected between plates. Unmarked entries are inactive. Some reagents were tested in more than one well and are listed for each.

- Aim: 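Regulators linking TLR4 signalling to p65 nuclear translocation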 (primary screen)
- Cell system: mouse RAW264.7 G9 macrophage reporter cells (GFP-p65, Tnf promoter-mCherry)
- Reagent: siRNA pool against mouse genes, 100 nM
- Time to read-out: 2 days siRNA transfection, then 40 min LPS before fixation
- Challenge: LPS (Salmonella minnesota R595) at 10 ng/ml
- Read-out: 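Imaged p65 nuclear translocation ratio, normalised to the plate median, converted to robust z-scores and averaged across two replicates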
- Direction: p65 translocation robust z-score: higher = more nuclear NF-kappaB p65 after LPS than the plate median; nuclear/cytoplasmic p65 ratio: higher = more nuclear NF-kappaB p65
- Rule for the call: 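Called active when z exceeds 3.3 or falls under -1.56 (median of Tlr4 controls), giving activity score of at least 50; no calls for control wells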
- Calls: active = hit (p65 shift raised or lowered); inactive = no clear change

Nudt18 (nudix hydrolase 18) scored p65 translocation robust z-score -0.82; nuclear/cytoplasmic p65 ratio, rep 1 = 1.4; nuclear/cytoplasmic p65 ratio, rep 2 = 1.77; low cell count flag enough cells to score.
After knock-down of Ubn2 (ubinuclein 2) the results were p65 translocation robust z-score -1.08; nuclear/cytoplasmic p65 ratio, rep 1 = 1.39; nuclear/cytoplasmic p65 ratio, rep 2 = 1.64; low cell count flag enough cells to score.
Defa31 (defensin, alpha, 31) gave p65 translocation robust z-score 2.81; nuclear/cytoplasmic p65 ratio, rep 1 = 1.84; nuclear/cytoplasmic p65 ratio, rep 2 = 1.72; low cell count flag enough cells to score.
Depletion of Ntrk3 (neurotrophic tyrosine kinase, receptor, type 3) came out at: p65 translocation robust z-score 0.39; nuclear/cytoplasmic p65 ratio, rep 2 = 1.43; low cell count flag enough cells to score.
With knock-down of Gfra1, the record shows p65 translocation robust z-score 0.12; nuclear/cytoplasmic p65 ratio, rep 1 = 1.46; nuclear/cytoplasmic p65 ratio, rep 2 = 1.38; low cell count flag enough cells to score.

Limited to “low cell count flag”, for 2 of the entries above:
Ntrk3 (neurotrophic tyrosine kinase, receptor, type 3) = enough cells to score
Gfra1 = enough cells to score

Additional records follow:
Brf1 scored p65 translocation robust z-score 0.84; nuclear/cytoplasmic p65 ratio, rep 1 = 1.73; nuclear/cytoplasmic p65 ratio, rep 2 = 1.75; low cell count flag enough cells to score.
Depletion of Dusp12 (dual specificity phosphatase 12) came out at: p65 translocation robust z-score 0.08; nuclear/cytoplasmic p65 ratio, rep 1 = 1.47; nuclear/cytoplasmic p65 ratio, rep 2 = 1.41; low cell count flag enough cells to score.
With knock-down of Gsta2 (glutathione S-transferase, alpha 2 (Yc2)) the results were p65 translocation robust z-score 0; nuclear/cytoplasmic p65 ratio, rep 1 = 1.66; nuclear/cytoplasmic p65 ratio, rep 2 = 1.53; low cell count flag enough cells to score.
With knock-down of Gpr87 (G protein-coupled receptor 87) the results were p65 translocation robust z-score 0.46; nuclear/cytoplasmic p65 ratio, rep 1 = 1.57; nuclear/cytoplasmic p65 ratio, rep 2 = 1.79; low cell count flag enough cells to score.
After knock-down of Prps1l1 (phosphoribosyl pyrophosphate synthetase 1-like 1) the results were p65 translocation robust z-score 0.19; nuclear/cytoplasmic p65 ratio, rep 1 = 1.64; nuclear/cytoplasmic p65 ratio, rep 2 = 1.47; low cell count flag enough cells to score.
Prps1l1 (phosphoribosyl pyrophosphate synthetase 1-like 1) gave p65 translocation robust z-score 0.4; nuclear/cytoplasmic p65 ratio, rep 1 = 1.32; nuclear/cytoplasmic p65 ratio, rep 2 = 1.6; low cell count flag enough cells to score.
After knock-down of Igsf5 (immunoglobulin superfamily, member 5), the record shows p65 translocation robust z-score 0.27; nuclear/cytoplasmic p65 ratio, rep 1 = 1.61; nuclear/cytoplasmic p65 ratio, rep 2 = 1.45; low cell count flag enough cells to score.
